# US11833178B2, “Bifidobacterium longum for treating obesity and weight management” (priority 2017, dated 2023)
# Tested on: Bifidobacterium longum APC1472
# Assay: Antibiotic susceptibility (VetMIC plates, ISO 10932:2010)
# Type: cell-based, Bifidobacterium longum ssp. longum
# Details: range of MICs for duplicate experiments, 37° C., 48 h
# Description: Antibiotic susceptibility was tested with […] plates Lact-1 and Lact-2 supplied from SVA (National Veterinary Institute, Uppsala, Sweden). The procedure followed the international standard of antibiotic testing for Bifidobacteria (ISO 10932:2010/IDF 223:2010). Colonies were suspended to OD 0.16-0.2 (at 625 nm) in LSM-Cys media (90% (v/v) ISO-sensitest (Ocon chemicals), 10% (v/v) MRS broth (Difco laboratories, Detroit, MI), supplemented with 0.3 g/L L-Cysteine (Sigma Aldrich) from strains grown on RCM agar anaerobically incubated at 37° C. for 48-72 h. Attained cell density corresponding to 3×10^8 CFU/ml was further diluted 1000 fold to a cell density of 3×10^5 CFU/ml. One hundred of cell suspension was aliquoted into 96-well plates within 30 min with a multichannel pipette to give 3×10^4 CFU/well. Plates were incubated at 37° C. for 48 h. After 48 h the plates were read visually. MICs were determined as 80% or more reduction in pellet, compared to positive control lane. Borderline cases were interpreted by visual examples from “Methods for Antimicrobial Susceptibility Testing of Anaerobic Bacteria: Approved Standard” (CLSI, 7th edition).
compound,measurement,value
"CCC[C@@H]1C[C@@H](C(=O)N[C@@H]([C@H]2O[C@H](SC)[C@H](O)[C@@H](O)[C@H]2O)[C@H](C)Cl)N(C)C1 [Cl, Clindamycin]",MIC,0.06 to 0.12 µg/mL
